# In the supplement of paper PMC12067093, “Discovery and optimisation of a covalent ligand for TRIM25 and its application to targeted protein ubiquitination” (Chemical Science, 2025):
# This is one part of the list.
# Molecular target: T1, FBXW4_P57775_167_RPLGVFAGHDEDVCHFVLANSHIVSAGGDGK (UniProt P57775)
# T1 sequence (whole entry): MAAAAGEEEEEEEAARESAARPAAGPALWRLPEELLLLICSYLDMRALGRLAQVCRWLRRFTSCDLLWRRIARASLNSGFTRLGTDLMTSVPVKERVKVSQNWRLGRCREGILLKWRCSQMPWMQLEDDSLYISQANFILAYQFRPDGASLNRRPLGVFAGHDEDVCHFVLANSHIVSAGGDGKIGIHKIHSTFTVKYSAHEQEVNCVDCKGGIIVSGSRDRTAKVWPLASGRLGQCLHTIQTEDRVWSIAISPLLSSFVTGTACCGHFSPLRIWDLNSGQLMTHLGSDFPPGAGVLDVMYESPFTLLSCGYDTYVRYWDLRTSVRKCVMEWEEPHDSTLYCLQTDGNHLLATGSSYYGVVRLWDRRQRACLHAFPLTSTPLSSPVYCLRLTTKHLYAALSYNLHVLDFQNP
# Assay: probe-labelled cysteine peptide fold change vs DMSO (competition) (log2 fold change); higher = less target engagement (more negative = stronger competition)
# Settings: THP-1, incubation time: 4 h
# 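Also: competitive profiling in live THP-1 cells: cysteine peptides tagged with an iodoacetamide desthiobiotin (IA-DTB) probe, intensity after compound treatment relative to DMSO-treated cells.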
compound,measurement,setting,value
Cc1cc(C(=O)N2CCCN(C(=O)CCl)CC2)ccc1-c1ccccc1 [compound 10],probe-labelled cysteine peptide fold change,10 µM,-0.00195
same,probe-labelled cysteine peptide fold change,50 µM,-0.0411
